According to patent US20250177334A1, “Pharmaceutical Compositions Comprising Phenylsulfonamides, and Their Therapeutic Applications” (Cura Therapeutics, LLC, priority 2018, published 2025):
For some assays here: At least one read-out could not be matched to a standard name with certainty. Some results were stated once for a whole list of compounds, not compound by compound.

Columns and labels:
[1] = Metabolic stability in fresh human plasma (LC/MS/MS peak heights); type: in vitro ADME; details: up to 4 h at room temperature
Procedure: Compounds A1-A3 were independently spiked directly into an individual lot of fresh human plasma, with sodium heparin as the anticoagulant, such that the final assay concentration of each compound was 1.00 μM. After incubation at room temperature for 0, 0.5, 1, 2, and 4 hours, samples were removed and aliquoted for analysis. Valacyclovir was used as a positive control. The plasma samples containing a test compound were processed by protein precipitation.
A primary 1.00 mM stock solution of a test compound was prepared in either acetonitrile or acetonitrile:water (1:1, v/v). A 0.200 mM working stock was made from the primary stock in acetonitrile water (1:1, v/v), which was used in the human plasma stabiltity study. The primary and working stock solutions were stored at −20° C. when not in use. When it was used in the assay, the working stock was kept at room temperature for as short a time as possible.
The human plasma stabiltity study was initiated by adding 5.00 μL of a test compound stock solution to 0.995 mL of human plasma (sodium heparin) in a 1.7-mL snap tube. Time zero points were generated by immediately removing duplicate 50.0 μL aliquots of plasma after initiating each incubation and quenching in 150 μL of methanol. The plasma incubation tubes were capped and remained at room temperature between time points.
After 0.5, 1, 2, and 4 hours of incubation, duplicate 50.0 μL aliquots of plasma were removed and placed into the extraction tubes containing 150 μL of methanol. Each time point was immediately extracted by vortex mixing, centrifuged, and the supernate removed to HPLC vial for analysis. After extraction of all samples, the extracts were analyzed by LC/MS/MS.
LC/MS/MS analysis of the incubation solutions was conducted by initial separation of a test compound peak using chromatography prior to detection by a mass spectrometer. The LC/MS system was comprised of a HPLC coupled with a TQS-Micro or Quattro Premier. […] The ionized compounds were detected using MS/MS. […]

[2] = Pharmacokinetic study of compound A2 in rats; type: in vivo
Procedure: A pharmacokinetic study on compound A2 was carried out in rats.

COc1cc(NS(=O)(=O)c2cccc(C(=O)O)c2)cc(OC)c1 [Compound A3, 3-(N-(3,5-dimethoxyphenyl)sulfamoyl)benzoic acid]
Metabolism in fresh human plasma [1]: not significantly metabolized

CS(=O)(=O)Nc1cccc(NS(=O)(=O)c2ccc(C(=O)O)cc2)c1 [Compound A1, 4-(N-(3-(methylsulfonamido)phenyl)sulfamoyl)benzoic acid]
Metabolism in fresh human plasma [1]: not significantly metabolized

Cc1ccc(C(F)(F)F)cc1NS(=O)(=O)c1cccc(C(=O)O)c1 [Compound A2, 3-(N-(2-methyl-5-(trifluoromethyl)phenyl)sulfamoyl)benzoic acid]
Vz or Vz/F ([2]; IV): 0.51 L/kg
Vz or Vz/F ([2]; PO): 1.6 L/kg
Metabolism in fresh human plasma [1]: not significantly metabolized
